Reference: patent US7820834B2, “Triptolide 5,6-derivatives as immunomodulators and anticancer agents” (Pharmagenesis, Inc., priority 2004, dated 2010)
Some results were stated once for a whole list of compounds, not compound by compound.

Tested on: IL-2 production in Jurkat cells
Assay: IL-2 Inhibition Assay
Format: cell-based, human
Method: Test compounds were diluted to 1 mM in complete tissue culture medium. Aliquots were placed in microculture plates coated with anti-CD3 antibody (used to stimulate the production of IL-2 by Jurkat cells), and serial dilutions were prepared so that the final concentration would encompass the range of 0.001 to 10,000 nM in log increments.
Invention compound 14-acetyl-5,6-didehydrotriptolide (designated PG746) was tested with and without a previous 16-hr incubation in human serum. Such incubation is expected to substantially convert the 14-acetyl group of PG746 to a 14-hydroxy group.
Cells from an exponentially expanding culture of Jurkat human T cell line (#TIB-152 obtained from American Type Culture Collection, Manassas, Va.) were harvested, washed once by centrifugation, re-suspended in complete tissue culture medium, and diluted to a concentration of 10^7 cells/ml. A volume of 50 μl of Jurkat cells was added to wells containing 100 μl of the diluted compounds, and the cells were stimulated with 50 ng/ml PMA and […] PHA. The plates were incubated at 37° C. in a 5% CO2 incubator. […] The stored supernatants were analyzed for human IL-2 concentration using the Luminex 100 (Luminex Corporation, Austin, Tex.), Luminex microspheres coupled with anti-IL-2 capture antibody, and fluorochrome-coupled anti-IL-2 detection antibody. The data were expressed as pg/ml of IL-2. […]

Compound	concentrations at which IL-2 production in Jurkat cells was inhibited in a dose-dependent manner (after incubation for 16 hours with human serum, FIG. 4) [nM]	concentrations at which IL-2 production in Jurkat cells was inhibited in a dose-dependent manner (Jurkat cells, 24 h, FIG. 3) [nM]
CC(=O)O[C@@H]1[C@@]2(C(C)C)O[C@H]2[C@@H]2O[C@]23[C@]12O[C@H]2C=C1C2=C(CC[C@@]13C)C(=O)OC2 [PG746, 14-acetyl-5,6-didehydrotriptolide]	≥ 10	–
CC(C)[C@]12O[C@H]1[C@@H]1O[C@]13[C@]1(O[C@H]1C[C@@]1(O)C4=C(CC[C@]31C)C(=O)OC4)[C@@H]2O [PG701, 5-α-hydroxytriptolide]	–	≥ 10
